{"source": "PubChem BioAssay AID1347423", "about": "(Functional Genomics Laboratory (NCATS/FGL), 2020)", "note": "Among all 52,000 sequences or so, about 210 (0.4%) were called active.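 The calls were made as follows: active = gene whose silencing raises cell survival under the drug, median off-target-corrected z-score across its silencing RNAs 2 or more; inactive = the rest.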 The list shows a part of the results."}
{"assay": "Resistance to Poly (ADP-Ribose) Polymerase inhibitor: Gene Identification via Genome-wide siRNA Screen", "conditions": "mouse BRCA2 R2336H ES cells, olaparib, CellTiter-Glo viability; stronger effect = higher value", "method_in_brief": "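Mouse BRCA2 R2336H ES cells were reverse-transfected with siRNA (20 nM final), treated at 48 h with 500 nM olaparib, and read by CellTiter-Glo after 72 h. Scores: MAD-based z per siRNA, median per gene, seed off-target correction.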"}
{"sequence": "GGCCUUGAAAUACUAUAAGTT against A430025D11Rik", "z-score": "inactive: -0.526"}
{"sequence": "GGCCUAUCUUCUUUACAUATT against Ctbs", "z-score": "inactive: 0.182"}
{"sequence": "GGAGAUGGCCACCUAUUUGTT against Csnk1g2", "z-score": "inactive: 0.743"}
{"sequence": "GCCACUCGUAUGAACAUCUTT against Gm237", "z-score": "inactive: 1"}
{"sequence": "GGACCACACGUCAAAAUGATT against 2610022G08Rik", "z-score": "inactive: 0.959"}
{"sequence": "CCUGUUUGUACUACUCUUUTT against Krt2-16", "z-score": "inactive: -0.309"}
{"sequence": "GCAGCUGAUCACUGGAAAGTT against Tuba3", "z-score": "inactive: -0.156"}
{"sequence": "GGCUGAGUCUACCAACAGUTT against 9930017A07Rik", "z-score": "inactive: 0.613"}
{"sequence": "GGAGUGGUUUGAGGACAGCTT against Ppfibp2", "z-score": "inactive: -0.591"}
{"sequence": "GGAAUUACUCACAUGCUAATT against Tlr7", "z-score": "inactive: -0.968"}
{"sequence": "GCUUUAAUGCCUAUUGCAATT against 2210421G13Rik", "z-score": "inactive: -0.111"}
{"sequence": "GCCCACCAAUAUUUUGCUUTT against Stk16", "z-score": "inactive: 0.723"}
{"sequence": "GGUAUUUGUCUGUAAUUUGTT against Ddx50", "z-score": "inactive: -0.652"}
{"sequence": "GGCUAGCAUUAGCCACAGATT against Enpp3", "z-score": "inactive: 0.649"}
{"sequence": "GGGCAGCUUUGAGAAAGCCTT against Rrad", "z-score": "inactive: 0.0689"}
{"sequence": "GGAGGACAAACAGCUUCAATT against Psmd2", "z-score": "inactive: -2.7"}
{"sequence": "GCACUGCUAUUUACAAAAATT against Tex16", "z-score": "inactive: 1.5"}
{"sequence": "GGAAAAGUCCAAUGUGACCTT against Ppyr1", "z-score": "inactive: -0.687"}
{"sequence": "GCCUAACCAACAAUUCUACTT against Oas1b", "z-score": "inactive: 0.742"}
{"sequence": "GGCAUUGUUUCAGUAUUGUTT against C030019I05Rik", "z-score": "inactive: 0.414"}
{"sequence": "GGUGCUGUCCAUGGUGAAGTT against Siat8e", "z-score": "inactive: -0.121"}
{"sequence": "GGAGUCAAAGCUCUUUAUUTT against Pitpnb", "z-score": "inactive: 0.375"}
{"sequence": "GCACAAUGACGCACUUACCTT against Pik3r2", "z-score": "inactive: 0.377"}
{"sequence": "GGGACACCUAUUUUAUCCATT against Lrp12", "z-score": "inactive: 1.45"}
{"sequence": "GGAUAUAAACCUCAUCCAATT against Mrgpre", "z-score": "inactive: -0.163"}
{"sequence": "GGACUCUUACCACAUAAUGTT against 1110059E24Rik", "z-score": "inactive: -0.0894"}
{"sequence": "CCAUACAAAAAGCUUAGACTT against Slit2", "z-score": "inactive: 0.215"}
{"sequence": "GAAGAAACGGCACAGCAAGTT against Egr4", "z-score": "inactive: 0.0235"}
{"sequence": "CCGUGUUACUAUACUCUGUTT against Pabpn1", "z-score": "inactive: -2.78"}
{"sequence": "GGCUGUGUUAAGACCUUAATT against 4930583H14Rik", "z-score": "inactive: -2.65"}
{"sequence": "GGGCAUUAGGGUGGUAGCATT against Gapds", "z-score": "inactive: -2.42"}
{"sequence": "GGUACACUGAGUCUGGAAGTT against Lsm11", "z-score": "inactive: -0.196"}
{"sequence": "GGAGAAUGCAAACAUCUCUTT against Slfn2", "z-score": "inactive: 1.21"}
{"sequence": "GGUAAUGGGAGCUUUUGGGTT against V1re3", "z-score": "inactive: -0.166"}
{"sequence": "CCUGUUACCCUAUAUUUUGTT against V1rg12", "z-score": "inactive: 1.23"}
{"sequence": "CCGACGUGUUUGUUGUUGGTT against Gtf2i", "z-score": "inactive: -0.858"}
{"sequence": "CCAAGCCGCUGAACAAUUUTT against Rnase6", "z-score": "inactive: 0.702"}
{"sequence": "CGAUGCUAGAGAUUAAUCATT against Rdh10", "z-score": "inactive: -0.642"}
{"sequence": "CCUUACCCAGCAAUAAAAATT against 1700023E05Rik", "z-score": "inactive: 0.819"}
{"sequence": "CCCAAUAAAAUAUCACCAGTT against 1700074P13Rik", "z-score": "inactive: -1.73"}
{"sequence": "GGCUCAGGACAAUGACUUCTT against 2010005J08Rik", "z-score": "inactive: 0.687"}
{"sequence": "GGCCUCAGCAUUUAUCUGGTT against Rtcd1", "z-score": "inactive: -0.49"}
{"sequence": "CCAGUGUAAGUUUGAUCAUTT against Zc3hdc8", "z-score": "inactive: -0.0456"}
{"sequence": "GGUCUUACCCUGCCAGCAUTT against Sh3md2", "z-score": "inactive: -0.915"}
{"sequence": "GGUUCUGAACAAAAAACUCTT against Pola2", "z-score": "inactive: 0.0387"}
{"sequence": "CCUACAGGAUCAUAGUUAATT against Nicn1", "z-score": "inactive: -0.49"}
{"sequence": "GGAGAUAUUCCAGAUCUUUTT against Picalm", "z-score": "inactive: 0.79"}
{"sequence": "GGGUUCUGCUAUGUUAAUGTT against Hdac2", "z-score": "inactive: 0.712"}
{"sequence": "GGAAAUACAAGUGGAAUUGTT against Agxt2l1", "z-score": "inactive: 0.112"}
{"sequence": "GGUUAUGGACAUUCAUGCCTT against Mrg1", "z-score": "inactive: 0.908"}
{"sequence": "GGUGCUGUGUGAGCUUUCATT against 4930441O14Rik", "z-score": "inactive: -0.511"}
{"sequence": "GAUGUGGGUUUUCUCUAACTT against Ly6g6c", "z-score": "inactive: -0.0431"}
{"sequence": "GGCUUUCAGUAAGAAGAUGTT against E130307J07Rik", "z-score": "inactive: -0.0144"}
{"sequence": "CCUUAUGUCCCUAAGGCUATT against Mbd3", "z-score": "inactive: 0.9"}
{"sequence": "GGAGCUGAAGCCAUUCAACTT against Gpx6", "z-score": "inactive: 1.76"}
{"sequence": "GCCUUUGAUAAAAGUCCGGTT against D030069K18", "z-score": "inactive: 1.14"}
{"sequence": "GGGCGAUGGAAAGCCUUUUTT against Olfr354", "z-score": "inactive: -0.748"}
{"sequence": "GUUUUCUUGAGACAGUUAATT against 1810008A14Rik", "z-score": "inactive: -0.106"}
{"sequence": "GGUGGGAAAAAACAUAAGGTT against BC035537", "z-score": "inactive: 0.352"}
{"sequence": "CGGGCUCAGGUAAAACUCUTT against Ddx31", "z-score": "inactive: 0.908"}
{"sequence": "GGAGAUGGAUUCCAAGGUATT against Rnf40", "z-score": "inactive: -1.14"}
{"sequence": "GGUUUGAUGAGAAGAAACATT against Mmp3", "z-score": "inactive: -1.26"}
{"sequence": "GGAAAAGAAAAGGGCGGGCTT against Tgfbr2", "z-score": "inactive: -0.616"}
{"sequence": "GGUCUUUGAGGAAAGAGGUTT against Hemk1", "z-score": "inactive: -0.22"}
{"sequence": "GGUUCAGAACGGAAGUGGCTT against Tnfrsf18", "z-score": "inactive: -1.39"}
{"sequence": "CGUUUUGUAUAUAUCUGACTT against Utx", "z-score": "inactive: 0.483"}
